Measured values reported in PMC3207863.
Results are given in words; binding and its absence hold for the method and conditions named. Binding seen in cells or lysates may run through a third protein. Some binding calls cover weakened binding; strength is not graded here. For part of these data: Sequences can lack the tags named with a protein.

Sequences of proteins named here, by UniProt entry; tags and fusion partners are left off.
UniProt O08788: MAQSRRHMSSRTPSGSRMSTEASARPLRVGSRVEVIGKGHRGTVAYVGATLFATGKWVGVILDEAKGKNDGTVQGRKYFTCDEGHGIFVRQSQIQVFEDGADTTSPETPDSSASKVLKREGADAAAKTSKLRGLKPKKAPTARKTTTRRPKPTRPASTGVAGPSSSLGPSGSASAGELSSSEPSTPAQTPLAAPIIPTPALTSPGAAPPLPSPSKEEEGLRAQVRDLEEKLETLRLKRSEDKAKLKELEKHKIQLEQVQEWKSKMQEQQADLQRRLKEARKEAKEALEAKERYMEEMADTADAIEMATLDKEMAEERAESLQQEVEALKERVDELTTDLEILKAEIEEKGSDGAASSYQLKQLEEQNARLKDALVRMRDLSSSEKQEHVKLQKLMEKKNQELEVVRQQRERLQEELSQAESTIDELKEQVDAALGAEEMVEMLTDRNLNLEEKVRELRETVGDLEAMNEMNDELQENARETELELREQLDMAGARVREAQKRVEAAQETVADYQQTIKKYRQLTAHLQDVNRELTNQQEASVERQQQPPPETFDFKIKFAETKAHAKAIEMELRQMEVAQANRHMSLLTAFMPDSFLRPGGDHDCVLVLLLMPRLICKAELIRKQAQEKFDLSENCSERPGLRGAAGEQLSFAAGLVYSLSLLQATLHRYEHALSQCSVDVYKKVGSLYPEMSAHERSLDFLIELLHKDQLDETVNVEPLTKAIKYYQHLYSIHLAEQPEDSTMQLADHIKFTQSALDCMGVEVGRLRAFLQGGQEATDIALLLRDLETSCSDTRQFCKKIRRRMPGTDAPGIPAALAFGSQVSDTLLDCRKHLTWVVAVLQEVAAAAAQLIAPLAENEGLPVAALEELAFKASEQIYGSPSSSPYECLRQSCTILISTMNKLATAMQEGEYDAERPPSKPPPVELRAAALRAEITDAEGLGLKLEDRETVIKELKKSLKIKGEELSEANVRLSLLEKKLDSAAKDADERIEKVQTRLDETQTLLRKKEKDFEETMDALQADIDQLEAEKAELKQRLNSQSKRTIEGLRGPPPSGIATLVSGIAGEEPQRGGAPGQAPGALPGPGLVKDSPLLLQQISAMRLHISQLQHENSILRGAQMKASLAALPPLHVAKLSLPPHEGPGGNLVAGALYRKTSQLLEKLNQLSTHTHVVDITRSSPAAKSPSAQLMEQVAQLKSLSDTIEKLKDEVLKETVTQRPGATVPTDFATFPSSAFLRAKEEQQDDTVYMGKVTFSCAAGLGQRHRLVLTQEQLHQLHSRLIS

T1: V5 tagged full length mouse LIS1 (mouse) (UniProt P63005)
T1 sequence: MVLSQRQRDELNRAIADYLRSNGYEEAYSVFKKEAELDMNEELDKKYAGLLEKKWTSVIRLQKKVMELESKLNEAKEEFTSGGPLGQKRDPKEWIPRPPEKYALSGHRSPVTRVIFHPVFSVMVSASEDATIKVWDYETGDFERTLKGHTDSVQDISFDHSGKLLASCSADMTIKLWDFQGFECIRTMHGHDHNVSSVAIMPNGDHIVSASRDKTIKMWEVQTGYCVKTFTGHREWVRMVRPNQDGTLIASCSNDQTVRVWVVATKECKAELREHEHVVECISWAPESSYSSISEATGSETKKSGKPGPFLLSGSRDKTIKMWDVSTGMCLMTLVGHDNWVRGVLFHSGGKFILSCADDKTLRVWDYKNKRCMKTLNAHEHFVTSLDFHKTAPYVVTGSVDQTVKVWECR

T2: GST fusion protein of the RUN domain of mouse Plekhm1 (mouse) (UniProt Q7TSI1)
T2 sequence: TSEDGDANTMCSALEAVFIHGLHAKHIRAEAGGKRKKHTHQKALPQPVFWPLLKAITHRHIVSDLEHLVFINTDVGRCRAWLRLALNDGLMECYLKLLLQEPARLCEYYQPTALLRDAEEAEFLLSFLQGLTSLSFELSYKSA


Legend:
[1] = biological target: T1, V5 tagged full length mouse LIS1 (mouse); test: co-IP; lysate of mature osteoclasts transduced with LIS1-V5 or empty vector, H-buffer; IP with anti-LIS1 polyclonal antibody, blots with anti-p150^glued, anti-DIC and anti-V5
[2] = biological target: HA tagged full length mouse Plekhm1 (mouse) (UniProt Q7TSI1); test: co-IP; lysate of mature osteoclasts transduced with HA-Plekhm1 constructs, H-buffer (20 mM HEPES pH 7.4, 1% Triton X-100, 1 mM EDTA, 150 mM NaCl, 1 mM DTT); IP with anti-HA, blots with anti-LIS1, anti-DIC and anti-HA
[3] = biological target: T2, GST fusion protein of the RUN domain of mouse Plekhm1 (mouse); test: pull-down; 2 µg GST fusion protein of single Plekhm1 domains on glutathione beads, 2 mg mature osteoclast lysate, 2 hours at 4°C, IP buffer (20 mM Hepes pH 7.4, 120 mM NaCl, 5% glycerol, 0.5 mM EDTA, 0.2% NP-40); immunoblot with anti-LIS1; only the target purified

| binding [1] | binding [2] | binding [3] | Molecule |
| --- | --- | --- | --- |
| binds | – | – | p150^glued subunit of dynactin complex, endogenous (from UniProt O08788 1-1281) |
| – | binds | binds | LIS1 (PAFAH1b1, platelet-activating factor acetylhydrolase isoform 1b subunit 1), endogenous (protein, UniProt P63005 1-410) MVLSQRQRDELNRAIADYLRSNGYEEAYSVFKKEAELDMNEELDKKYAGLLEKKWTSVIRLQKKVMELESKLNEAKEEFTSGGPLGQKRDPKEWIPRPPEKYALSGHRSPVTRVIFHPVFSVMVSASEDATIKVWDYETGDFERTLKGHTDSVQDISFDHSGKLLASCSADMTIKLWDFQGFECIRTMHGHDHNVSSVAIMPNGDHIVSASRDKTIKMWEVQTGYCVKTFTGHREWVRMVRPNQDGTLIASCSNDQTVRVWVVATKECKAELREHEHVVECISWAPESSYSSISEATGSETKKSGKPGPFLLSGSRDKTIKMWDVSTGMCLMTLVGHDNWVRGVLFHSGGKFILSCADDKTLRVWDYKNKRCMKTLNAHEHFVTSLDFHKTAPYVVTGSVDQTVKVWECR |
